Source: patent US20150210767A1 (GlaxoSmithKline, published 2015)
No constants are given. Whether binding was seen depends on the method and setting. Some binding calls cover weakened binding; strength is not graded here.

Protein sequences, listed by entry. Tags and fused reporters are not part of them. Residues count along the entry.
UniProt P19438, residues 30-211: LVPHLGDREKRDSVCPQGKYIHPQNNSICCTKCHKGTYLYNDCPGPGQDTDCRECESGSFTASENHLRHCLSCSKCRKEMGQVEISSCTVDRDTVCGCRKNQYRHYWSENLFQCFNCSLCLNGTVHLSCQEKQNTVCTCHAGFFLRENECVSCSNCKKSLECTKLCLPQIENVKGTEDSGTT

B1: DMS5544 (bispecific antibody)
chain: EVQLLESGGGLVQPGGSLRLSCAASGFTFDKYSMGWVRQAPGKGLEWVSQISDTADRTYYAHSVKGRFTISRDNSKNTLYLQMNSLRAEDTAVYYCAIYTGRWVPFEYWGQGTLVTVSSASTDIQMTQSPSSLSASVGDRVTITCRASRPIGTTLSWYQQKPGKAPKLLILWNSRLQSGVPSRFSGSGSGTDFTLTISSLQPEDFATYYCAQAGTHPTTFGQGTKVEIKR
notes: Single-chain genetic fusion of the anti-TNFR1 VH dAb DOM1h-574-188, linker AST and the anti-serum albumin Vk dAb DOM7h-11-3; also called DOM1h-574-188 - Ala-Ser-Thr - DOM7h-11-3; anti-TNFR1/AlbudAb fusion
B2: DMS5535 (bispecific antibody)
chain: EVQLLESGGGLVQPGGSLRLSCAASGFTFSKYSMGWVRQAPGKGLEWVSQISDTADRTYYAHSVKGRFTISRDNSKNTLYLQMNSLRAEDTAVYYCAIYTGRWEPFEYWGQGTLVTVSSASTDIQMTQSPSSLSASVGDRVTITCRASRPIGTTLSWYQQKPGKAPKLLILWNSRLQSGVPSRFSGSGSGTDFTLTISSLQPEDFATYYCAQAGTHPTTFGQGTKVEIKR
notes: Single-chain genetic fusion of the anti-TNFR1 VH dAb DOM1h-574-196, linker AST and the anti-serum albumin Vk dAb DOM7h-11-3; also called DOM1h-574-196 - Ala-Ser-Thr - DOM7h-11-3; anti-TNFR1/AlbudAb fusion
B3: DMS5542 (bispecific antibody)
chain: EVQLLESGGGLVQPGGSLRLSCAASGFTFSKYSMGWVRQAPGKGLEWVSQISDTADRTYYADSVKGRFTISRDNSKNTLYLQMNSLRAEDTAVYYCAIYTGRWVPFEYWGQGTLVTVSSASTDIQMTQSPSSLSASVGDRVTITCRASRPIGTTLSWYQQKPGKAPKLLILWNSRLQSGVPSRFSGSGSGTDFTLTISSLQPEDFATYYCAQAGTHPTTFGQGTKVEIKR
notes: Single-chain genetic fusion of the anti-TNFR1 VH dAb DOM1h-574-214, linker AST and the anti-serum albumin Vk dAb DOM7h-11-3; also called DOM1h-574-214 - Ala-Ser-Thr - DOM7h-11-3; anti-TNFR1/AlbudAb fusion

molecular target: biotinylated recombinant human soluble TNFR1 (human) (UniProt P19438); experiment: BIAcore (SPR), biotinylated human TNFR1 on streptavidin chip

Binder | binding
B1 | binds
B2 | binds
B3 | binds
